No constants are given. Whether binding was seen depends on the method and setting. Binding seen in cells or lysates may run through a third protein. Some entries that bind do so weakly or less than the wild type. For part of these data: Where a sequence is shown, tags or fusion partners need not be part of it.
Tests used:
[1] = target: AGO2 (human (endogenous in HEK293T)) (UniProt Q9UKV8); assay: co-IP; endogenous AGO2 precipitated from HEK293T lysate with anti-AGO2 antibody on Protein A Sepharose (mouse IgG as control); blot with anti-DDX3
FLAG-tagged DDX3 (human) = FLAG-tagged DDX3 (human) (UniProt O00571); assay: co-IP; FLAG-tagged DDX3 or PACT precipitated from HEK293T lysate with ANTI-FLAG M2 Affinity Gel, 4 °C, 2 h; blot with anti-Dicer
FLAG-tagged PACT (human) = target: T1, FLAG-tagged PACT (human) (UniProt O75569); assay: as above
T1 sequence: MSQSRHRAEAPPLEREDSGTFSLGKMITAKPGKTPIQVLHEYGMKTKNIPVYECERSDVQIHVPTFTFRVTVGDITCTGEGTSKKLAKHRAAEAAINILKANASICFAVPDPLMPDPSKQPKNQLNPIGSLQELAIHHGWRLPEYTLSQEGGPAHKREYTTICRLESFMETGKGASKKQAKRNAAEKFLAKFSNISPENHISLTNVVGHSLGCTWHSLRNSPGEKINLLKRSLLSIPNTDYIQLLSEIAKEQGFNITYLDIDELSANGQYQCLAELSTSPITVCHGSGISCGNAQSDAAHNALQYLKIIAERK

Chains of the proteins cited; added tags and fusions are not shown.
UniProt Q9UKV8: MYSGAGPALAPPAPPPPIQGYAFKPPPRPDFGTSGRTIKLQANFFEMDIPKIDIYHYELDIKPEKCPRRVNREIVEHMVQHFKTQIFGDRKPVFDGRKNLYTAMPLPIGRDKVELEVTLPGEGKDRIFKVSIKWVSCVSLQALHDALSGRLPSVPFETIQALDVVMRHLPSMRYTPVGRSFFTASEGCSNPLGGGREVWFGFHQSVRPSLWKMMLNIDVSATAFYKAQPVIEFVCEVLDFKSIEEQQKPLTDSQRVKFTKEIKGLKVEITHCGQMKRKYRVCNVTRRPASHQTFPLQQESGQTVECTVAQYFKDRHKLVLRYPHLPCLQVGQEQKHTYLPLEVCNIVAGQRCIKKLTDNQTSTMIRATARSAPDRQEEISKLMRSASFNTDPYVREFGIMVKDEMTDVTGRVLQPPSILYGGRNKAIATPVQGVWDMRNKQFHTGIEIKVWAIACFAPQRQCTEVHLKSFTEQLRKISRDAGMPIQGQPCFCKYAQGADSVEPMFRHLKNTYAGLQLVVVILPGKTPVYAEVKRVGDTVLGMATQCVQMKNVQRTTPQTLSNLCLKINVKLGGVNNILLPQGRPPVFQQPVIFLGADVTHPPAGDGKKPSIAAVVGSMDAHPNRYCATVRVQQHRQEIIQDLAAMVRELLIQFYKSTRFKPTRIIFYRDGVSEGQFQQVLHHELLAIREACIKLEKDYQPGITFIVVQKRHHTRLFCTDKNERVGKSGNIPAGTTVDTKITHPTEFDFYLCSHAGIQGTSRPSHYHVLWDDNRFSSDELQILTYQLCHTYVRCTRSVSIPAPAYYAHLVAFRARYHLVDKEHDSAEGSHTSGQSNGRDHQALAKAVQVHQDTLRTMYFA
UniProt O00571: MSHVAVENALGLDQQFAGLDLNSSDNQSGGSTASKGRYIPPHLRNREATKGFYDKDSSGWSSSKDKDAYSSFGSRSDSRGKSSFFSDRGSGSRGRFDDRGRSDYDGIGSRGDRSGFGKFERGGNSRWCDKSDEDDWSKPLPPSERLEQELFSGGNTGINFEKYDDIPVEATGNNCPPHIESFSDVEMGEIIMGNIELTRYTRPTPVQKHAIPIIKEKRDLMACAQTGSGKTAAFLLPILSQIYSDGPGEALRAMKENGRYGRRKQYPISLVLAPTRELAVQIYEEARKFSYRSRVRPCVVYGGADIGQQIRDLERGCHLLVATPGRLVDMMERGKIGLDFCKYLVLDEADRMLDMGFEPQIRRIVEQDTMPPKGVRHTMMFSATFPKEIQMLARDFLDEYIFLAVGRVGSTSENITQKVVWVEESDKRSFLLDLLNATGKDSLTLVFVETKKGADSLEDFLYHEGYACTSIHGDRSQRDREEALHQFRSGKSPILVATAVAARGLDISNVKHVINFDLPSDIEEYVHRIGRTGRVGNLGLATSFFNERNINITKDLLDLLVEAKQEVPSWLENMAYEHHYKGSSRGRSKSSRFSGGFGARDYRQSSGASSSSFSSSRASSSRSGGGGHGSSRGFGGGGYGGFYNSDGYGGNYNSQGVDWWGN
UniProt Q9UPY3: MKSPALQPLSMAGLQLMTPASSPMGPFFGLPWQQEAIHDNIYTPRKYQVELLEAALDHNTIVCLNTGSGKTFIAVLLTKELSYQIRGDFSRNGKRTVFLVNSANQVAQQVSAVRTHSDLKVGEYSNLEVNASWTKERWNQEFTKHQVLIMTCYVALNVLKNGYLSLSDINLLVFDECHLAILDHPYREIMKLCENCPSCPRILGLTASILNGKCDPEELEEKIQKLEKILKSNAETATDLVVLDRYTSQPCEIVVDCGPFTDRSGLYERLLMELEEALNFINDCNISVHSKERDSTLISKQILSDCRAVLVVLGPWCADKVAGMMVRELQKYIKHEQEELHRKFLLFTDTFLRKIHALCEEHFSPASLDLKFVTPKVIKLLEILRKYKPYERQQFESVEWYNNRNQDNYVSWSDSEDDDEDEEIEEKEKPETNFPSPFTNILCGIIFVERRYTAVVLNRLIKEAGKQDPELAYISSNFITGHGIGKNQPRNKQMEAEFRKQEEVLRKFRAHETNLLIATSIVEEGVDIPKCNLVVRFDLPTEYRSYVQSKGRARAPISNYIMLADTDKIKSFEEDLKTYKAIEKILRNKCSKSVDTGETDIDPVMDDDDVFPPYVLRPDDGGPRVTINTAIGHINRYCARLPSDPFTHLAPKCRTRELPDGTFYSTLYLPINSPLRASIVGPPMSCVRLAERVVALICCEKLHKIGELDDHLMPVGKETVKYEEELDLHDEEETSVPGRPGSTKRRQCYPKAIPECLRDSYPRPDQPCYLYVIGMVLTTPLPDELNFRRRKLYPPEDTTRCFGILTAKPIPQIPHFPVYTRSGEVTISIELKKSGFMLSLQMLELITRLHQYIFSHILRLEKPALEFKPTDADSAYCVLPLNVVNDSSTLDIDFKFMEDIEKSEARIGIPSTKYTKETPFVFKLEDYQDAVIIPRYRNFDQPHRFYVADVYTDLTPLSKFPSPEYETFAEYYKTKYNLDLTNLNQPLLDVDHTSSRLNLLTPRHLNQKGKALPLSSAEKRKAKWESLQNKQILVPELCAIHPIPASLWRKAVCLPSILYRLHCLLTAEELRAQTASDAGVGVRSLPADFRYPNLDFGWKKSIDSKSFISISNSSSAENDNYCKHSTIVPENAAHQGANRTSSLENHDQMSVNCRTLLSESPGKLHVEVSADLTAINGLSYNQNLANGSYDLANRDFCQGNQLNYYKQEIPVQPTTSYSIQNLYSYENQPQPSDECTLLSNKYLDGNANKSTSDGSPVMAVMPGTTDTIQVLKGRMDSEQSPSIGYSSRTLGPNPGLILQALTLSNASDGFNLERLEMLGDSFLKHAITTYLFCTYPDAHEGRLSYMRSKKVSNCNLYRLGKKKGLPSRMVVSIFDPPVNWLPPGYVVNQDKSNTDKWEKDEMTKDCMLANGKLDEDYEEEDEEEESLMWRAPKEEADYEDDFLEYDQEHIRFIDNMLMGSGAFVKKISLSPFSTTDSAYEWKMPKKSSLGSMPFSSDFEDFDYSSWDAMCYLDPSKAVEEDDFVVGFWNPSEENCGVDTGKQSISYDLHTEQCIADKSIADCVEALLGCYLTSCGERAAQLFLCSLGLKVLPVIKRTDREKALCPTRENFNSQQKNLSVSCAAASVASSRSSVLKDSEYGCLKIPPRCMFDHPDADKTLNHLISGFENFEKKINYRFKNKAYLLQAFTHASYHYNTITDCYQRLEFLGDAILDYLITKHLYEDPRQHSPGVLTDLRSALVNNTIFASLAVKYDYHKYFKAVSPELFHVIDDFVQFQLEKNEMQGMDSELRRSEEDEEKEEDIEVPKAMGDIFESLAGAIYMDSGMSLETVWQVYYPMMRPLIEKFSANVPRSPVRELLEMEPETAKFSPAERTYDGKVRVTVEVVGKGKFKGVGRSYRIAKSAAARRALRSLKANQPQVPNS

Substance	binding [1]	binding (FLAG-tagged DDX3 (human))	binding (FLAG-tagged PACT (human))
DDX3 (endogenous) (from UniProt O00571 1-662)	binds		
Dicer (from UniProt Q9UPY3 1-1922) (enzyme)		binds weakly	binds
